Results published in patent US20100173835A1, “Peptides for Treatment of Obesity” (Novo Nordisk A/S, priority 2008, published 2010).
At least one peptide structure holds a part that was inferred or is arguable (an end, a ring closure or a residue). For at least one compound, name, drawing or mass did not settle the structure. *1 amine or outer side, *2 acyl side, *3 side chain or, on linkers, in order; H or OH if unused. Where a SMILES comes first, the peptide text is derived from it. Bridges are numbered along the chain shown (N, C = ends). [ ]: non-standard residue; d: D form. The star is where a group is joined. Palmitoyl(16-(5-tetrazolyl)) = O=C(CCCCCCCCCCCCCCCc1nnn[nH]1)*; Lys(CH2CO2H)2 = N[C@@H](CCCCN(CC(=O)O)CC(=O)O)C(=O)O; X1 = O=C(O)CN(CC(=O)O)C[C@H](N[*:1])C(=O)[*:2]; Hyp = O=C(O)[C@@H]1C[C@@H](O)CN1; NTA = O=C(O)CN(CC(=O)O)CC(=O)*; Nle = CCCC[C@H](N)C(=O)O; Orn = NCCC[C@H](N)C(=O)O; Dap = NC[C@H](N)C(=O)O; AEEA = NCCOCCOCC(=O)O; βAla = NCCC(=O)O

Tested on: ad libitum fed rat model
Assay: Assay (I) efficacy testing on appetite, ad libitum fed rat model
Format: in vivo
Protocol: Assay (I)—Experimental protocol for efficacy testing on appetite with MC4 analogues, using an ad libitum fed rat model. TAC:SPRD @mol rats or Wistar rats from M&B Breeding and Research Centre A/S, Denmark are used for the experiments. The rats have a body weight 200-250 g at the start of experiment. The rats arrive at least 10-14 days before start of experiment with a body weight of 180-200 g. Each dose of compound is tested in a group of 8 rats. […] When the animals arrive they are housed individually in a reversed light/dark phase (lights off 7:30 am, lights on 7:30 pm), meaning that lights are off during daytime and on during nighttime. […] During this period the animals are handled at least 3 times. The experiment is conducted in the rats' home cages. Immediately before dosing the rats are randomised to the various treatment groups (n 8) by body weight. They are dosed according to body weight at between 7:00 am and 7:45 am, with a 1-3 mg/kg solution administered intraperitoneally (ip), orally (po) or subcutaneously (sc). The time of dosing is recorded for each group. After dosing, the rats are returned to their home cages, where they then have access to food and water. […] At the end of the experimental session, the animals are euthanised. The individual data are recorded in Microsoft excel sheets. Outliers are excluded after applying the Grubbs statistical evaluation test for outliers, and the result is presented graphically using the GraphPad Prism program.

Row | SMILES | Food consumption (% of vehicle) 24 h (dosing 3 mg/kg) | Food consumption (% of vehicle) 48 h (dosing 3 mg/kg) | also measured
1 | CCCC[C@H](NC(=O)[C@H](CNC(=O)CN(CC(=O)O)CC(=O)O)NC(=O)[C@H](Cc1c[nH]cn1)NC(=O)[C@H](CCC(N)=O)NC(=O)[C@H](CO)NC(=O)CNC(=O)COCCOCCNC(=O)CCCCCCCCCCCCCCCc1nnn[nH]1)C(=O)N[C@H]1CCC(=O)NCCCC[C@@H](C(N)=O)NC(=O)[C@H](Cc2c[nH]c3ccccc23)NC(=O)[C@H](CCCNC(=N)N)NC(=O)[C@@H](Cc2ccccc2)NC(=O)[C@@H]2C[C@@H](O)CN2C1=O [Example 9, (2-{2-[16-(Tetrazol-5-yl)hexadecanoylamino]ethoxy}ethoxy)acetyl-Gly-Ser-Gln-His-Dap(BCMA)-Nle-c[Glu-Hyp-D-Phe-Arg-Trp-Lys]-NH2] ({Palmitoyl(16-(5-tetrazolyl))-AEEA}-GSQH[Dap](NTA)[Nle]E[Hyp][dF]RWK-NH2; lactam 7-12) | 47 % of vehicle | 57 % of vehicle | 
2 | CCCC[C@H](NC(=O)[C@H](CCCNC(=O)CN(CC(=O)O)CC(=O)O)NC(=O)[C@H](Cc1c[nH]cn1)NC(=O)[C@H](CCC(N)=O)NC(=O)[C@H](CO)NC(=O)CNC(=O)COCCOCCNC(=O)CCCCCCCCCCCCCCCc1nnn[nH]1)C(=O)N[C@H]1CCC(=O)NCCCC[C@@H](C(N)=O)NC(=O)[C@H](Cc2c[nH]c3ccccc23)NC(=O)[C@H](CCCNC(=N)N)NC(=O)[C@@H](Cc2ccccc2)NC(=O)[C@@H]2C[C@@H](O)CN2C1=O [Example 8, (2-{2-[16-(Tetrazol-5-yl)hexadecanoylamino]ethoxy}ethoxy)acetyl-Gly-Ser-Gln-His-Orn(BCMA)-Nle-c[Glu-Hyp-D-Phe-Arg-Trp-Lys]-NH2] ({Palmitoyl(16-(5-tetrazolyl))-AEEA}-GSQH[Orn](NTA)[Nle]E[Hyp][dF]RWK-NH2; lactam 7-12) |  |  | Food consumption (% of vehicle) 24 h (dosing 1 mg/kg): 62 % of vehicle; Food consumption (% of vehicle) 48 h (dosing 1 mg/kg): 75 % of vehicle
3 | CCCC[C@H](NC(=O)[C@H](CCCCN(CC(=O)O)CC(=O)O)NC(=O)CCNC(=O)[C@H](Cc1c[nH]cn1)NC(=O)[C@H](CCC(N)=O)NC(=O)[C@H](CO)NC(=O)[C@H](CO)NC(=O)[C@H](CCC(N)=O)NC(=O)[C@@H](CO)NC(=O)CNC(=O)COCCOCCNC(=O)COCCOCCNC(=O)CCCCCCCCCCCCCCCc1nnn[nH]1)C(=O)N[C@H]1CCC(=O)NCCCC[C@@H](C(N)=O)NC(=O)[C@H](Cc2c[nH]c3ccccc23)NC(=O)[C@H](CCCNC(=N)N)NC(=O)[C@@H](Cc2ccccc2)NC(=O)[C@@H]2C[C@@H](O)CN2C1=O [Example 12, (2-{2-[2-(2-{2-[16-(Tetrazol-5-yl)hexadecanoylamino]ethoxy}ethoxy)acetylamino]ethoxy}ethoxy)acetyl-Gly-D-Ser-Gln-Ser-Ser-Gln-His-β-Ala-Lys(biscarboxymethyl)-Nle-c[Glu-Hyp-D-Phe-Arg-Trp-Lys]-NH2] ({Palmitoyl(16-(5-tetrazolyl))-AEEA-AEEA}-G[dS]QSSQH[βAla][Lys(CH2CO2H)2][Nle]E[Hyp][dF]RWK-NH2; lactam 11-16) |  |  | Food consumption (% of vehicle) 24 h (dosing 1 mg/kg, 1 mg/kg): 62 % of vehicle; Food consumption (% of vehicle) 48 h (dosing 1 mg/kg, 1 mg/kg): 77 % of vehicle
4 | CCCC[C@H](NC(=O)[C@H](CN(CC(=O)O)CC(=O)O)NC(=O)[C@H](Cc1c[nH]cn1)NC(=O)[C@H](CCC(N)=O)NC(=O)[C@H](CO)NC(=O)CNC(=O)COCCOCCNC(=O)CCCCCCCCCCCCCCCc1nnn[nH]1)C(=O)N[C@H]1CCC(=O)NCCCC[C@@H](C(N)=O)NC(=O)[C@H](Cc2c[nH]c3ccccc23)NC(=O)[C@H](CCCNC(=N)N)NC(=O)[C@@H](Cc2ccccc2)NC(=O)[C@@H]2C[C@@H](O)CN2C1=O [Example 6, (2-{2-[16-(Tetrazol-5-yl)hexadecanoylamino]ethoxy}ethoxy)acetyl-Gly-Ser-Gln-His-Dap(biscarboxymethyl)-Nle-c[Glu-Hyp-D-Phe-Arg-Trp-Lys]-NH2] ({Palmitoyl(16-(5-tetrazolyl))-AEEA}-GSQH[X1][Nle]E[Hyp][dF]RWK-NH2; lactam 7-12) | 58 % of vehicle | 69 % of vehicle | 
5 | CCCC[C@H](NC(=O)[C@H](CNC(=O)CN(CC(=O)O)CC(=O)O)NC(=O)[C@H](CO)NC(=O)[C@H](CCC(N)=O)NC(=O)[C@H](CO)NC(=O)CNC(=O)COCCOCCNC(=O)CCCCCCCCCCCCCCCc1nnn[nH]1)C(=O)N[C@H]1CCC(=O)NCCCC[C@@H](C(N)=O)NC(=O)[C@H](Cc2c[nH]c3ccccc23)NC(=O)[C@H](CCCNC(=N)N)NC(=O)[C@@H](Cc2ccccc2)NC(=O)[C@@H]2C[C@@H](O)CN2C1=O [Example 4, (2-{2-[16-(Tetrazol-5-yl)hexadecanoylamino]ethoxy}ethoxy)acetyl-Gly-Ser-Gln-Ser-Dap(BCMA)-Nle-c[Glu-Hyp-D-Phe-Arg-Trp-Lys]-NH2] ({Palmitoyl(16-(5-tetrazolyl))-AEEA}-GSQS[Dap](NTA)[Nle]E[Hyp][dF]RWK-NH2; lactam 7-12) | 52 % of vehicle | 69 % of vehicle | 
